Values from PubChem BioAssay AID686938 (Drosophila RNAi Screening Center, 2013).

Test: 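Knock-downs reducing store-operated calcium influx in Drosophila cells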 (primary screen)
Cells: Drosophila S2R+ cells
Reagent: long dsRNA against Drosophila genes, about 0.25 µg dsRNA per well, roughly 10,000 cells
Timing: 5 days of knock-down before the calcium assay
Treatment: thapsigargin (SERCA pump blocker) to empty calcium stores; entry signal taken 4 min after adding it
Measured: 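Duplicate raw fluo-4 intensities per well from a plate reader, at rest and four minutes after thapsigargin emptied calcium stores; entry-to-rest ratio filled for only some wells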
Reading the numbers: calcium entry signal: higher = stronger calcium signal after store depletion; entry to resting ratio: higher = more calcium entry relative to resting level; resting calcium signal: higher = higher resting calcium signal
Hit rule: 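Called when the plate z-score of the entry-to-rest ratio, mean of duplicates, falls below −3; wells with low overall dye signal (Fmax z below −2) or more than five off-targets excluded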
Calls: active = strongly reduced calcium entry; inactive = no strong reduction
In all, the deposit lists about 23,000 reagents; below is a random part of those that have a named target and a result. Over the whole deposit, 75 (0.33%) got an active call. 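Raw plate signals without normalisation; calls rest on plate z-scores that were not deposited; ratio present for only 364 wells.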 A plus sign joins genes that one reagent is predicted to hit. Not given: the dose of the treatment.

Target gene	PubChem SID	calcium entry signal, replicate 1 (fluorescence units)	calcium entry signal, replicate 2 (fluorescence units)	entry to resting ratio	resting calcium signal, replicate 1 (fluorescence units)	resting calcium signal, replicate 2 (fluorescence units)	Call
ham (hamlet)	SID104181449	2.57e7	4.49e7		1.44e7	1.91e7	inactive
ham (hamlet)	SID104181862	4.35e7	4.53e7		2.08e7	1.81e7	inactive
ham (hamlet)	SID104182304	4.14e7	2.22e7		2.01e7	1.18e7	inactive
ham (hamlet)	SID104182305	3.45e7	3.94e7		1.84e7	1.83e7	inactive
CG16964	SID104182338	3.41e7	1.91e7		1.61e7	9.28e6	inactive
RpS8 (Ribosomal protein S8)	SID104196110	1.25e7	1.42e7		9.26e6	9.97e6	inactive
CG30036	SID104201114	2.12e7	2.79e7		1.15e7	1.33e7	inactive
Dbp73D (Dead box protein 73D)	SID104190934	1.75e7	2.29e7		9.68e6	1.73e7	inactive
CG17807	SID104184088	3.80e7			1.80e7		inactive
Fur2 (Furin 2)	SID104199609	2.13e7	1.87e7		1.26e7	9.87e6	inactive
Glo1 (Glyoxalase 1)	SID104186449	3.50e7	4.49e7		1.55e7	1.94e7	inactive
CG31675	SID104181617	3.36e7	7.07e7		1.52e7	2.67e7	inactive
CG11211	SID104184643	4.27e7	4.12e7		2.08e7	2.02e7	inactive
CG32006	SID104201435	3.55e7	3.62e7		1.96e7	1.60e7	inactive
CG15614	SID104186359	3.59e7	5.03e7		1.76e7	2.28e7	inactive
CG10943	SID104189597	2.57e7	4.17e7		1.32e7	1.84e7	inactive
daed (daedalus)	SID104180091	3.41e7			1.66e7		inactive
CG34057	SID104188167	2.12e7	3.42e7		1.15e7	1.40e7	inactive
Damm (Death associated molecule related to Mch2 caspase)	SID104187185	3.08e7	4.61e7		1.71e7	1.99e7	inactive
CG31550	SID104191989	4.24e7	3.14e7		1.98e7	1.52e7	inactive
CG31550	SID104191990	2.45e7	3.47e7		1.13e7	1.53e7	inactive
CG11658	SID104189644	2.47e7	3.82e7		1.26e7	1.63e7	inactive
CG42375 + CG9288	SID104196260	2.82e7	3.01e7		1.15e7	1.40e7	inactive
CG13982	SID104182106	2.46e7	1.97e7		1.24e7	1.02e7	inactive
Ir7d (Ionotropic receptor 7d)	SID104197802	3.71e7	2.76e7		1.80e7	1.40e7	inactive
Pburs (Partner of Bursicon)	SID104182275	5.58e7	2.95e7		2.45e7	1.50e7	inactive
CG11997	SID104194256	4.50e7	4.64e7		2.10e7	2.28e7	inactive
CG4666	SID104198171	3.68e7	4.56e7		1.78e7	2.09e7	inactive
trx (trithorax)	SID104196881	2.50e7	2.69e7		1.08e7	1.31e7	inactive
Ddc (Dopa decarboxylase)	SID104183106	4.99e7	6.12e7		2.30e7	2.41e7	inactive
NT1 (Neurotrophin 1)	SID104188322	2.26e7	3.19e7		1.10e7	1.36e7	inactive
NT1 (Neurotrophin 1)	SID104202254	4.44e7	3.30e7		2.19e7	1.47e7	inactive

Next part, starting with the last 5 of the part before.
Target gene	PubChem SID	calcium entry signal, replicate 1 (fluorescence units)	calcium entry signal, replicate 2 (fluorescence units)	entry to resting ratio	resting calcium signal, replicate 1 (fluorescence units)	resting calcium signal, replicate 2 (fluorescence units)	Call
CG4666	SID104198171	3.68e7	4.56e7		1.78e7	2.09e7	inactive
trx (trithorax)	SID104196881	2.50e7	2.69e7		1.08e7	1.31e7	inactive
Ddc (Dopa decarboxylase)	SID104183106	4.99e7	6.12e7		2.30e7	2.41e7	inactive
NT1 (Neurotrophin 1)	SID104188322	2.26e7	3.19e7		1.10e7	1.36e7	inactive
NT1 (Neurotrophin 1)	SID104202254	4.44e7	3.30e7		2.19e7	1.47e7	inactive
Nfs1 (Nfs1 cysteine desulfurase)	SID104181946	6.43e7			2.85e7		inactive
ref(2)P (refractory to sigma P)	SID104183393	4.74e7	4.53e7		1.94e7	1.91e7	inactive
CG42780	SID104197306	3.26e7	3.91e7		1.60e7	1.64e7	inactive
CG4287	SID104195351	5.10e7	2.05e7		2.23e7	9.97e6	inactive
Tsp2A (Tetraspanin 2A)	SID104198376	4.25e7	4.11e7	2.1	2.02e7	1.77e7	inactive
CG34269	SID104187676	4.45e7	4.74e7		2.49e7	2.16e7	inactive
Lk6 (Lk6 kinase)	SID104192659	3.34e7	3.16e7		1.62e7	1.75e7	inactive
Lk6 (Lk6 kinase)	SID104196520	3.52e7	4.05e7		1.59e7	1.86e7	inactive
RpS21 (Ribosomal protein S21)	SID104180625	1.33e7	2.78e7		9.85e6	1.51e7	inactive
CG9717	SID104196335	4.69e7	4.45e7		2.33e7	1.87e7	inactive
Tpc2	SID104184114	4.07e7	4.66e7		2.15e7	2.35e7	inactive
Jhbp2 (Juvenile hormone binding protein 2)	SID104192084	3.16e7	5.05e7		1.55e7	2.18e7	inactive
CG3588	SID104198265	5.87e7	6.11e7	2.1	2.81e7	2.53e7	inactive
Obp51a (Odorant-binding protein 51a)	SID104201886	2.28e7	3.44e7		1.16e7	1.51e7	inactive
CG5033	SID104187202	2.52e7	2.52e7		1.24e7	1.35e7	inactive
AttB (Attacin-B)	SID104186526	3.13e7	3.07e7		1.65e7	1.60e7	inactive
CycT (Cyclin T)	SID104190916	2.08e7	2.15e7		1.82e7	1.47e7	active
CycT (Cyclin T)	SID104202661	2.15e7	1.90e7		1.39e7	1.08e7	inactive
CG8195	SID104186895	2.97e7	2.51e7		1.33e7	1.29e7	inactive
CG15080	SID104186303	4.80e7	4.17e7		1.93e7	1.98e7	inactive
CG12684	SID104197667	3.18e7	4.33e7		1.55e7	1.98e7	inactive
CG14636	SID104192015	2.74e7	4.72e7		1.44e7	1.92e7	inactive
CG15814	SID104199522	2.82e7	2.96e7		1.43e7	1.47e7	inactive
Kaz (Katazuke)	SID104194429	3.22e7	3.78e7		1.51e7	1.84e7	inactive
enok (enoki mushroom)	SID104183888	3.33e7			1.69e7		inactive
IPIP (Inositol phosphatase interacting protein)	SID104181956	4.90e7			2.72e7		inactive
